Laboratory results as given in PubChem BioAssay AID485314 (National Center for Advancing Translational Sciences (NCATS), 2010).
“And” between values parts separate entries of the source, which are not always exact repeats. Equal values may be shown once. About 4,500 (1.3%) of roughly 340,000 compounds were called active. The inconclusive results got no clear call from the source; some entries with a clear call stand among them for comparison. The call rests on the fitted dose curve; in most records, active means well fitted inhibition curve with a large enough effect; inconclusive means small, poorly fitted or top-dose-only effect, or another doubt; inactive means no such curve, though single readings can be large or run the other way. Potencies beside an inconclusive call are fits to weak or partial responses and may not hold up.
On the % scale 0 is the no-effect control and ±100 the full control effect; potency means the concentration at half of the fitted maximal effect.

Each molecule was assayed against DNA polymerase beta (Homo sapiens) (UniProt P06746) (assay: qHTS Assay for Inhibitors of DNA Polymerase Beta). Settings: Pol beta primer extension/strand displacement, fluorescence kinetic; activity change, negative = inhibition: at 114 µM (top of the series).
Method in brief: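 Enzyme-only controls used 10 nM Pol beta; buffer lacking enzyme served as negative control. Compound preincubated 15 min, then 50 nM substrate added; 0 and 10 min reads at room temperature.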
Cc1ccc(NS(=O)(=O)c2ccc(C)c(C(=O)N3CCN(C)CC3)c2)cc1 was tested, and the Potency was inconclusive: 0.158 µM [inhibitor, full curve, poor fit].
COc1ccccc1CN1CCNC(=O)C1CC(=O)NCc1c(C)n[nH]c1C (configuration not stated) was tested, and the “activity change, negative = inhibition” value was inactive: -28.7%.
In the case of O=C(Nc1ccc(C(O)(C(F)(F)F)C(F)(F)F)cc1)c1ccc(Cl)c([N+](=O)[O-])c1, the Potency was inconclusive: 35.5 µM [inhibitor, single point].
O=C(Nc1ccc(N2CCCC2)cc1)c1ccc2ccccc2c1 was tested, and the Potency was inconclusive: 89.1 µM [inhibitor, single point].
O=C(COc1ccc(F)cc1)OCc1cc(=O)n2nc(-c3cccs3)sc2n1 was tested, and the Potency was inconclusive: 14.1 µM [inhibitor, full curve].
With CCCCNc1nnc(SCC(=O)c2c[nH]c3ccccc23)s1 the Potency was inconclusive: 70.8 µM [inhibitor, partial curve].
With C/C(=N\NC(=S)NCCc1ccccc1)c1cccc(Br)c1 the Potency was inconclusive: 1.58 µM [inhibitor, full curve, poor fit].
For O=C(O)c1ccc2c(c1)N(Cc1ccc(F)cc1)C(=O)c1ccccc1S2, the Potency was inconclusive: 0.631 µM [inhibitor, full curve, poor fit].
In the case of O=C(NC1CCCCC1)c1ccc2c(c1)N(Cc1ccccc1Cl)C(=O)c1ccccc1S2, the “activity change, negative = inhibition” value was inactive: 7.94%.
With CC1CC(N(C(=O)c2ccc(Cl)cc2)c2ccccc2)c2ccccc2N1C(=O)c1ccco1 (configuration not stated) the Potency was inconclusive: 0.282 µM [inhibitor, full curve, poor fit].
With CCOc1ccccc1NC(=O)C1CCCN1S(=O)(=O)c1ccc2nc(-c3ccccc3)[nH]c2c1 (configuration not stated) the Potency was inconclusive: 5.01 µM [inhibitor, full curve].
With CCC(C)Nc1nc2c(c(=O)[nH]c(=O)n2C)n1CCOc1ccccc1 (configuration not stated) the Potency was inconclusive: 2 µM [inhibitor, single point].
Cc1ccc(N2C(=O)N3[C@H](c4ccc(F)cc4)[C@@H]4C(=O)N(C5CCCCC5)C(=O)[C@@H]4[C@]3(C)C2=O)cc1 was tested, and the Potency was inconclusive: 35.5 µM [inhibitor, single point].
In the case of CCOc1ccc(C(=O)Nc2ccc3nc(N4CCN(CC)CC4)cc(C)c3c2)cc1, the Potency was inconclusive: 3.55 µM [inhibitor, single point].
In the case of CCOc1ccc(NC(=O)CC2C(=O)N(c3ccccc3)C(=S)N2Cc2ccccn2)cc1 (configuration not stated), the Potency was inconclusive: 5.01 µM [inhibitor, full curve, poor fit].
Cc1ccc2occ(CC(=O)Nc3ccc(S(=O)(=O)N4CCC(C)CC4)cc3)c2c1 was tested, and the Potency was inconclusive: 79.4 µM [inhibitor, single point].
CCOc1ccc2ncc3c(-c4cccc(OC)c4)nn(-c4ccccc4)c3c2c1 was tested, and the “activity change, negative = inhibition” value was inactive: -22.1%.
Cn1c(Oc2ccccc2)c(C=O)c2ccccc21 was tested, and the Potency was inconclusive: 70.8 µM [inhibitor, partial curve, poor fit].
CCOc1cc(NC(=S)Nc2ccccc2OC)c(OCC)cc1NC(=O)c1ccccc1C was tested, and the Potency was inconclusive: 35.5 µM [inhibitor, single point].
For O=S(=O)(c1ccccc1)c1nnn2c1nc(NCc1ccccc1)c1cc(Cl)ccc12, the “activity change, negative = inhibition” value was inactive: -2.61%.
In the case of Cc1ccc(C2c3c(oc4ccccc4c3=O)C(=O)N2c2nnc(C)s2)cc1 (configuration not stated), the Potency was inconclusive: 89.1 µM [inhibitor, single point].
With Cc1cc(C(=O)CSc2nnnn2-c2ccc(O)cc2)c(C)n1Cc1ccc2c(c1)OCO2 the Potency was inconclusive: 79.4 µM [inhibitor, partial curve].
For CCC(C)N1C(=O)/C(=C/c2c(NCCCOC(C)C)nc3c(C)cccn3c2=O)SC1=S (configuration not stated), the Potency was active: 28.2 µM.
Cc1ccccc1-c1ccc(C(=O)Nc2cccc(F)c2)o1 was tested, and the Potency was inconclusive: 89.1 µM [inhibitor, single point].
With CCC(C)NC(=O)Cn1c(=O)n(Cc2ccc(C(=O)NCc3ccc(C)cc3)cc2)c(=O)c2ccccc21 (configuration not stated) the Potency was active: 20 µM.
For CN1CCc2c(C#N)c(N3CCCCC3)nc(NCc3ccccc3)c2C1, the Potency was inconclusive: 56.2 µM [inhibitor, partial curve].
Cc1ccc(CNC(=O)CSc2nc3n[nH]c(C)c3c(=N)n2-c2ccccc2Cl)cc1 was tested, and the Potency was inconclusive: 89.1 µM [inhibitor, single point].
With COC(=O)N/N=C/c1cc(C)n(-c2ccccc2)c1C the Potency was inconclusive: 89.1 µM [inhibitor, single point].
CNC(=S)N(CCc1c(C)[nH]c2ccc(C)cc12)Cc1cc(OC)c(OC)c(OC)c1 was tested, and the Potency was inconclusive: 89.1 µM [inhibitor, single point].
In the case of CC(=O)C1=C(c2ccccc2)N(C(C)=O)n2c(C)nnc2S1, the Potency was inconclusive: 0.316 µM [inhibitor, full curve, poor fit].
For Cc1ccc(-n2ncc3c(SCc4ccccc4)ncnc32)cc1, the Potency was inconclusive: 89.1 µM [inhibitor, single point].
For CCCCCn1c(N)c(-c2nc3ccccc3o2)c2c([N+](=O)[O-])nn(CC)c(=O)c21, the Potency was active: 2 µM.
CC(=O)Nc1ccc(N2CCCCC2)c(C(=O)Nc2cccc(C)c2)c1 was tested, and the “activity change, negative = inhibition” value was inactive: 5.64%.
In the case of NC(=O)C1(N2CCCCC2)CCN(C(=S)Nc2cc(F)cc(F)c2)CC1, the “activity change, negative = inhibition” value was inactive: -0.199%.
With COC(=O)c1cc(NC(=O)Nc2cc(OC)ccc2OC)cc(C(=O)OC)c1 the Potency was inconclusive: 100 µM [inhibitor, single point].
O=C(COC(=O)/C=C/c1ccco1)Nc1cccc([N+](=O)[O-])c1 was tested, and the Potency was inconclusive: 15.8 µM [inhibitor, full curve].
With CCSc1nc(=S)n(Cc2ccccc2)c(C)c1C(C)=O the Potency was inconclusive: 39.8 µM [inhibitor, single point].
With Cc1ccc(NC(=O)C(=O)NC2CCCCC2)cc1 the Potency was inconclusive: 0.112 µM [inhibitor, full curve, poor fit].
For Cc1cc(C)n(S(=O)(=O)c2ccccc2[N+](=O)[O-])n1, the Potency was inconclusive: 39.8 µM [inhibitor, single point].
In the case of O=C(COc1ccccc1Cl)NCCCNC(=O)c1cccnc1, the Potency was inconclusive: 5.01 µM [inhibitor, full curve, poor fit].
O=C1C(Cl)=C(N2CCC(C(=O)O)CC2)C(=O)c2ccccc21 was tested, and the Potency was inconclusive: 79.4 µM [inhibitor, single point].
CS(=O)(=O)N1N=C(c2ccc(Br)cc2)CC1c1ccc2c(c1)OCO2 (configuration not stated) was tested, and the Potency was inconclusive: 14.1 µM [inhibitor, partial curve].
For Cc1ccc(C)c(NC(=O)Cn2ncc3c(C)n(Cc4ccc(F)cc4)c(C)c3c2=O)c1, the Potency was inconclusive: 20 µM [inhibitor, full curve, poor fit].
COC(=O)c1c(NC(C)=O)sc(C(=O)Nc2ccccc2)c1C was tested, and the “activity change, negative = inhibition” value was inactive: 27.8%.
With COc1ccc(-c2nn(C)c3sc(C(=O)NCCN(C)C)cc23)cc1OC the Potency was active: 10 µM and active: 31.6 µM.
In the case of Cc1ccc(C)c(S(=O)(=O)NCc2ccc3c(c2)OCO3)c1, the Potency was inconclusive: 12.6 µM [inhibitor, single point].
With CCc1ccc(C(=O)c2cn(CC(=O)NCCc3ccccc3)c3nc(C)ccc3c2=O)cc1 the Potency was inconclusive: 79.4 µM [inhibitor, single point].
In the case of O=C(CCNC(=O)C1CCN(S(=O)(=O)c2ccccc2)CC1)NCCc1ccc(Cl)cc1, the activity change, negative = inhibition was inconclusive: -35.7% [inhibitor].
In the case of O=C(Nc1nc(-c2ccc(F)cc2)cs1)C1CCCO1 (configuration not stated), the Potency was inconclusive: 79.4 µM [inhibitor, single point].
With O=C(NCCc1ccccc1)c1c[nH]c2ccc(S(=O)(=O)Nc3ccc(F)cc3F)cc2c1=O the Potency was inconclusive: 44.7 µM [inhibitor, partial curve].
c1ccc(CC2CCN(C3=Nc4cccc5cccc3c45)CC2)cc1 was tested, and the Potency was inconclusive: 56.2 µM [inhibitor, partial curve].
Cc1ccc(N2CCN(C(=O)c3cc(C(=O)c4ccccc4C)c[nH]3)CC2)c(C)c1 was tested, and the Potency was inconclusive: 39.8 µM [inhibitor, single point].
In the case of O=C(C[n+]1ccc(-c2ccccc2)cc1)Nc1ccc([N+](=O)[O-])cc1, the Potency was inconclusive: 50.1 µM [inhibitor, partial curve].
For Cc1ccc(NC(=O)c2c(NC(=O)CCC(=O)O)sc3c2CCCCC3)cc1, the Potency was inconclusive: 35.5 µM [inhibitor, partial curve, poor fit].
In the case of COc1ccc(NC(=O)Cn2nnc(C(=O)NCc3ccccc3)c2N)c(OC)c1, the Potency was inconclusive: 63.1 µM [inhibitor, single point].
In the case of COc1ccc2cc3cc(C(=O)NC(C)C)oc3nc2c1, the Potency was inconclusive: 0.112 µM [inhibitor, full curve, poor fit].
With CCCCCc1nc2c(=O)[nH]c3ccccc3c2o1 the “activity change, negative = inhibition” value was inactive: 41.8%.
For O=C(O)Cn1c(O)c(C2=c3ccccc3=NC2=O)sc1=O, the Potency was inconclusive: 31.6 µM [inhibitor, partial curve].
For O=C(NCCc1ccccc1)c1ccc2c(c1)N(Cc1ccc(Cl)cc1)C(=O)c1ccccc1S2(=O)=O, the “activity change, negative = inhibition” value was inactive: -1.93%.
O=C(/C=C/c1ccc(O)cc1)c1ccc(NC2=C(N3CCCCC3)C(=O)c3ccccc3C2=O)cc1 was tested, and the Potency was inconclusive: 14.1 µM [inhibitor, full curve, poor fit].
CCCCC(CC)CNC(=O)CN(C)S(=O)(=O)c1cccc2nsnc12 (configuration not stated) was tested, and the Potency was inconclusive: 89.1 µM [inhibitor, single point].
O=S(=O)(N1CCCCC1)N1CCN(S(=O)(=O)N2CCCCC2)CC1 was tested, and the Potency was inconclusive: 6.31 µM [inhibitor, full curve].
